Assay results as given in article PMC10724393, “FOXA2 Suppression by TRIM36 Exerts Anti‐Tumor Role in Colorectal Cancer Via Inducing NRF2/GPX4‐Regulated Ferroptosis” (Advanced Science, 2023).

The chains behind the UniProt entries cited, without tags or fusion partners.
UniProt Q99496: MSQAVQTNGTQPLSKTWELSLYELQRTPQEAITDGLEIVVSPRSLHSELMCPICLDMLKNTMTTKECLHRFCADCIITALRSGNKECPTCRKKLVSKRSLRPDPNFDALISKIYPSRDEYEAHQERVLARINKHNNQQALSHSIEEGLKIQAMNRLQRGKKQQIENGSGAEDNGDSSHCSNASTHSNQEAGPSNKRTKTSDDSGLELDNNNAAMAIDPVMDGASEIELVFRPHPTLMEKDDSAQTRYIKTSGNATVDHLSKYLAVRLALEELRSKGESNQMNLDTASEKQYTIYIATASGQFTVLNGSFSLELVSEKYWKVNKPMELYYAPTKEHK
UniProt Q9UNE7: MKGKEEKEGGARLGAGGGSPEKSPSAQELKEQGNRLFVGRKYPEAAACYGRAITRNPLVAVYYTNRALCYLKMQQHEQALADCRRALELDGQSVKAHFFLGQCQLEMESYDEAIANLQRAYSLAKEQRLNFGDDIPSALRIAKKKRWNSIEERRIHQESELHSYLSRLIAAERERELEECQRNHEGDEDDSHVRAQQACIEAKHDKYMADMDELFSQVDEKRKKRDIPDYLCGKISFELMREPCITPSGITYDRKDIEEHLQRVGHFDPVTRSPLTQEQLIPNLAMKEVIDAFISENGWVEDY
UniProt Q14258: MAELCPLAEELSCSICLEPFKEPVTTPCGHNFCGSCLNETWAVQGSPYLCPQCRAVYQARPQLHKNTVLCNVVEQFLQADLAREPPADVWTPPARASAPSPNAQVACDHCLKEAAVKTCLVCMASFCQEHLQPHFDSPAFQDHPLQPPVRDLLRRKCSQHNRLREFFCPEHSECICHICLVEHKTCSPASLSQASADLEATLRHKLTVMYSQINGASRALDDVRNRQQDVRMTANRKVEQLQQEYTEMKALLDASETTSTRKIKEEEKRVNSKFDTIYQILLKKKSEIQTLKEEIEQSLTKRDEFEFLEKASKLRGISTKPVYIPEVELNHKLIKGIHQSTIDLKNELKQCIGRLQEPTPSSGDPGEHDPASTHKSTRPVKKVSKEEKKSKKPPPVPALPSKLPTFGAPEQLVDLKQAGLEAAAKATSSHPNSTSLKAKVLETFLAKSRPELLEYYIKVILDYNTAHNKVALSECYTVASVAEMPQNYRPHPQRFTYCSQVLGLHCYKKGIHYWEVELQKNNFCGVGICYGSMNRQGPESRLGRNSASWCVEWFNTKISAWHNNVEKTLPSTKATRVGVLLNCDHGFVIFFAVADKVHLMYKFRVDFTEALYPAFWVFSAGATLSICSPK

T1: forkhead box transcription factor A2 (FOXA2), stably transfected (human) (UniProt Q9Y261)
T1 sequence: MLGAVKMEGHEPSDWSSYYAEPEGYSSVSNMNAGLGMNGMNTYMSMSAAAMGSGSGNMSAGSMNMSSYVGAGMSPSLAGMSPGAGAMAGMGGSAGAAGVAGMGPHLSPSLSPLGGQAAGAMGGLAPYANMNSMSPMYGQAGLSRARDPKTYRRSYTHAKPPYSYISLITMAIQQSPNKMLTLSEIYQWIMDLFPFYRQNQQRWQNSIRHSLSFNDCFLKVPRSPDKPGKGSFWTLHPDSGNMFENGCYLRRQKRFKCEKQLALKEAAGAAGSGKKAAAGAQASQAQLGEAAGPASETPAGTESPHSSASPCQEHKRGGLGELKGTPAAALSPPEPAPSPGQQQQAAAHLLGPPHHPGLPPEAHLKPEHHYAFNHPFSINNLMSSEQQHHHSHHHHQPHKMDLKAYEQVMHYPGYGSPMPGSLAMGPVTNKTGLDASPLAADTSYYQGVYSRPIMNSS

B1: MID1, endogenous (protein, UniProt O15344 1-667)
chain: METLESELTCPICLELFEDPLLLPCAHSLCFNCAHRILVSHCATNESVESITAFQCPTCRHVITLSQRGLDGLKRNVTLQNIIDRFQKASVSGPNSPSETRRERAFDANTMTSAEKVLCQFCDQDPAQDAVKTCVTCEVSYCDECLKATHPNKKPFTGHRLIEPIPDSHIRGLMCLEHEDEKVNMYCVTDDQLICALCKLVGRHRDHQVAALSERYDKLKQNLESNLTNLIKRNTELETLLAKLIQTCQHVEVNASRQEAKLTEECDLLIEIIQQRRQIIGTKIKEGKVMRLRKLAQQIANCKQCIERSASLISQAEHSLKENDHARFLQTAKNITERVSMATASSQVLIPEINLNDTFDTFALDFSREKKLLECLDYLTAPNPPTIREELCTASYDTITVHWTSDDEFSVVSYELQYTIFTGQANVVSLCNSADSWMIVPNIKQNHYTVHGLQSGTKYIFMVKAINQAGSRSSEPGKLKTNSQPFKLDPKSAHRKLKVSHDNLTVERDESSSKKSHTPERFTSQGSYGVAGNVFIDSGRHYWEVVISGSTWYAIGLAYKSAPKHEWIGKNSASWALCRCNNNWVVRHNSKEIPIEPAPHLRRVGILLDYDNGSIAFYDALNSIHLYTFDVAFAQPVCPTFTVWNKCLTIITGLPIPDHLDCTEQLP
B2: tripartite motif containing 36 (TRIM36), endogenous (protein, UniProt Q9NQ86 1-728)
chain: MSESGEMSEFGYIMELIAKGKVTIKNIERELICPACKELFTHPLILPCQHSICHKCVKELLLTLDDSFNDVGSDNSNQSSPRLRLPSPSMDKIDRINRPGWKRNSLTPRTTVFPCPGCEHDVDLGERGINGLFRNFTLETIVERYRQAARAATAIMCDLCKPPPQESTKSCMDCSASYCNECFKIHHPWGTIKAQHEYVGPTTNFRPKILMCPEHETERINMYCELCRRPVCHLCKLGGNHANHRVTTMSSAYKTLKEKLSKDIDYLIGKESQVKSQISELNLLMKETECNGERAKEEAITHFEKLFEVLEERKSSVLKAIDSSKKLRLDKFQTQMEEYQGLLENNGLVGYAQEVLKETDQSCFVQTAKQLHLRIQKATESLKSFRPAAQTSFEDYVVNTSKQTELLGELSFFSSGIDVPEINEEQSKVYNNALINWHHPEKDKADSYVLEYRKINRDDEMSWNEIEVCGTSKIIQDLENSSTYAFRVRAYKGSICSPCSRELILHTPPAPVFSFLFDEKCGYNNEHLLLNLKRDRVESRAGFNLLLAAERIQVGYYTSLDYIIGDTGITKGKHFWAFRVEPYSYLVKVGVASSDKLQEWLRSPRDAVSPRYEQDSGHDSGSEDACFDSSQPFTLVTIGMQKFFIPKSPTSSNEPENRVLPMPTSIGIFLDCDKGKVDFYDMDQMKCLYERQVDCSHTLYPAFALMGSGGIQLEEPITAKYLEYQEDM

Biological target: T1, forkhead box transcription factor A2 (FOXA2), stably transfected (human)
Assay: affinity purification with mass spectrometry; IP with anti-FOXA2 antibody vs isotype-control IgG from HCT-116 and HEK293T cells stably transfected with FOXA2; proteins found in both cell lines

binding, binds:
RNF2, endogenous (from UniProt Q99496 1-336)
CHIP, endogenous (from UniProt Q9UNE7 1-303)
TRIM25, endogenous (from UniProt Q14258 1-630)
B1
B2

These are yes or no findings as the source states them, for the method shown. In cells and extracts the contact can be indirect. A yes stands for co-enrichment or nearness to the bait. Other partners may have been found.
